This series deals with T1, TnAa transposase wild-type (Alishewanella aestuarii).
T1 sequence: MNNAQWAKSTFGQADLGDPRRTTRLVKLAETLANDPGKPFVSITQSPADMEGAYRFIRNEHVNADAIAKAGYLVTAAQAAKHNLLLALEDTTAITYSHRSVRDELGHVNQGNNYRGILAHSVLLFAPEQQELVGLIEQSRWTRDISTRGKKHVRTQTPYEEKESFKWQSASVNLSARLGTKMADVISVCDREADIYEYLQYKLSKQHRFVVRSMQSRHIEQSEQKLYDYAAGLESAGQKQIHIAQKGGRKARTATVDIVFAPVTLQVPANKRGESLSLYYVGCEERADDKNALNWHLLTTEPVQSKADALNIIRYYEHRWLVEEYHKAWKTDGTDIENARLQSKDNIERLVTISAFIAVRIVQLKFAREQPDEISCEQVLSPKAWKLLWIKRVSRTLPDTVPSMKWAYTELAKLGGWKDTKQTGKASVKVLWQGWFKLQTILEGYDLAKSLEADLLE
Briefly: activity in cells. As to conditions: E. coli DH10B, only a few colonies; protein in cells.

The exact form of at least one protein or probe is not confirmed. Where a protein sequence is shown, tags need not be part of it.

Turning to “CTCGAGTAACGGACGAACGCAAACAAACGTGGATCCTTCAGCTGTCTCTTATACACATCTGAACTAGTTGTAGGCCTAAATTCGAACTGATCCTTCAACTCAGCAAAAGTTCGATTTATTCAACAAAGCCACGTTGTGTCTCAAAATCTCTGATGTTACATTGCACAAGATAAAAATATATCATCATGAACAATAAAACTGTCTGCTTACATAAACAGTAATACAAGGGGTGTTATGAGCCATATTCAACGGGAAACGTCTTGCTCTAGGCCGCGATTAAATTCCAACATGGATGCTGATTTATATGGGTATAAATGGGCTCGCGATAATGTCGGGCAATCAGGTGCGACAATCTATCGATTGTATGGGAAGCCCGATGCGCCAGAGTTGTTTCTGAAACATGGCAAAGGTAGCGTTGCCAATGATGTTACAGATGAGATGGTCAGACTAAACTGGCTGACGGAATTTATGCCTCTTCCGACCATCAAGCATTTTATCCGTACTCCTGATGATGCATGGTTACTCACCACTGCGATCCCCGGGAAAACAGCATTCCAGGTATTAGAAGAATATCCTGATTCAGGTGAAAATATTGTTGATGCGCTGGCAGTGTTCCTGCGCCGGTTGCATTCGATTCCTGTTTGTAATTGTCCTTTTAACAGCGATCGCGTATTTCGTCTCGCTCAGGCGCAATCACGAATGAATAACGGTTTGGTTGATGCGAGTGATTTTGATGACGAGCGTAATGGCTGGCCTGTTGAACAAGTCTGGAAAGAAATGCATAAGCTTTTGCCATTCTCACCGGATTCAGTCGTCACTCATGGTGATTTCTCACTTGATAACCTTATTTTTGACGAGGGGAAATTAATAGGTTGTATTGATGTTGGACGAGTCGGAATCGCAGACCGATACCAGGATCTTGCCATCCTATGGAACTGCCTCGGTGAGTTTTCTCCTTCATTACAGAAACGGCTTTTTCAAAAATATGGTATTGATAATCCTGATATGAATAAATTGCAGTTTCATTTGATGCTCGATGAGTTTTTCTAACACGATATCGTCAATTGCTAGATGTGTATAAGAGACAGGCTGGACAACGAGAGTAGTTACGTCCTAGG (double strand) [Mobilisable kanamycin region of TnAa minimal test vectors]”, the activity on this sequence (colonies per plate (undiluted)) is 47.

These data come from patent US20200347441.
